Assay results taken from paper PMC10066286.
Changes are numbered by the printed parent chain. Results are given in words; binding and its absence hold for the method and conditions named. Binding seen in cells or lysates may run through a third protein. Some binding calls cover weakened binding; strength is not graded here.

How the values were obtained:
[1] = target: T1, SRP72 p.R124S mutant (human) (UniProt O76094); experiment: co-IP; lysates of transfected 293T cells, 48 h after transfection; Pierce MS-Compatible Magnetic IP Kit; incubated with anti-c-Myc antibody (9E10) at 4 °C overnight; immunoblotting with anti-Myc (9B11), anti-HA (C29F4) and anti-GAPDH
T1 sequence: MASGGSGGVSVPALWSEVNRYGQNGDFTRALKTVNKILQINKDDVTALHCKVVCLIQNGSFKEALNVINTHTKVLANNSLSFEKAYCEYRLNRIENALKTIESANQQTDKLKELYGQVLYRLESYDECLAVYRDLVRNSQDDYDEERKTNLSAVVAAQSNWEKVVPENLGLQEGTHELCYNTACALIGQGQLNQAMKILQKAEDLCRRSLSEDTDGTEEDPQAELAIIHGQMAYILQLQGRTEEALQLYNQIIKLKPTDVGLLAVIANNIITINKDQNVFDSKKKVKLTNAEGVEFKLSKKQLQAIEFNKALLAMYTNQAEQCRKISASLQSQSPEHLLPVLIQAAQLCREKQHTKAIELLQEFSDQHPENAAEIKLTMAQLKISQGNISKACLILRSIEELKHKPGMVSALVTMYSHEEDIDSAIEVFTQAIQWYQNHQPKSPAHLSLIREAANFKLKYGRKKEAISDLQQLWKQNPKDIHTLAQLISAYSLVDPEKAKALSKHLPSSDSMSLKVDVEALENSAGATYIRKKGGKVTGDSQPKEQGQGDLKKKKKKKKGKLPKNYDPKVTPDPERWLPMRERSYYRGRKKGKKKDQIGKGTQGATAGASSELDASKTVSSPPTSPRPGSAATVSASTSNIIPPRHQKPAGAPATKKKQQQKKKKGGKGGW

[2] = target: T2, SRP72 (signal recognition particle 72), wild-type (human) (UniProt O76094); experiment: as above
T2 sequence: T1 sequence with S124R

B1: SRP68 (protein, UniProt Q9UHB9 1-627)
chain: MAAEKQVPGGGGGGGSGGGGGSGGGGSGGGRGAGGEENKENERPSAGSKANKEFGDSLSLEILQIIKESQQQHGLRHGDFQRYRGYCSRRQRRLRKTLNFKMGNRHKFTGKKVTEELLTDNRYLLLVLMDAERAWSYAMQLKQEANTEPRKRFHLLSRLRKAVKHAEELERLCESNRVDAKTKLEAQAYTAYLSGMLRFEHQEWKAAIEAFNKCKTIYEKLASAFTEEQAVLYNQRVEEISPNIRYCAYNIGDQSAINELMQMRLRSGGTEGLLAEKLEALITQTRAKQAATMSEVEWRGRTVPVKIDKVRIFLLGLADNEAAIVQAESEETKERLFESMLSECRDAIQVVREELKPDQKQRDYILEGEPGKVSNLQYLHSYLTYIKLSTAIKRNENMAKGLQRALLQQQPEDDSKRSPRPQDLIRLYDIILQNLVELLQLPGLEEDKAFQKEIGLKTLVFKAYRCFFIAQSYVLVKKWSEALVLYDRVLKYANEVNSDAGAFKNSLKDLPDVQELITQVRSEKCSLQAAAILDANDAHQTETSSSQVKDNKPLVERFETFCLDPSLVTKQANLVHFPPGFQPIPCKPLFFDLALNHVAFPPLEDKLEQKTKSGLTGYIKGIFGFRS
**Q.** Which results are given for B1?
**A.** binding [1]: binds; binding [2]: binds
